Source: article PMC5024327
These are yes or no findings as the source states them, for the method shown. For some assays here: In cells and extracts the contact can be indirect. Some binding calls cover weakened binding; strength is not graded here. For some assays here: Where a sequence is shown, tags or fusion partners need not be part of it. Values belong to the molecule of their own block, whether it stands above or below them.

Amino acid sequences for entries named in this document (tags omitted).
UniProt Q96A65: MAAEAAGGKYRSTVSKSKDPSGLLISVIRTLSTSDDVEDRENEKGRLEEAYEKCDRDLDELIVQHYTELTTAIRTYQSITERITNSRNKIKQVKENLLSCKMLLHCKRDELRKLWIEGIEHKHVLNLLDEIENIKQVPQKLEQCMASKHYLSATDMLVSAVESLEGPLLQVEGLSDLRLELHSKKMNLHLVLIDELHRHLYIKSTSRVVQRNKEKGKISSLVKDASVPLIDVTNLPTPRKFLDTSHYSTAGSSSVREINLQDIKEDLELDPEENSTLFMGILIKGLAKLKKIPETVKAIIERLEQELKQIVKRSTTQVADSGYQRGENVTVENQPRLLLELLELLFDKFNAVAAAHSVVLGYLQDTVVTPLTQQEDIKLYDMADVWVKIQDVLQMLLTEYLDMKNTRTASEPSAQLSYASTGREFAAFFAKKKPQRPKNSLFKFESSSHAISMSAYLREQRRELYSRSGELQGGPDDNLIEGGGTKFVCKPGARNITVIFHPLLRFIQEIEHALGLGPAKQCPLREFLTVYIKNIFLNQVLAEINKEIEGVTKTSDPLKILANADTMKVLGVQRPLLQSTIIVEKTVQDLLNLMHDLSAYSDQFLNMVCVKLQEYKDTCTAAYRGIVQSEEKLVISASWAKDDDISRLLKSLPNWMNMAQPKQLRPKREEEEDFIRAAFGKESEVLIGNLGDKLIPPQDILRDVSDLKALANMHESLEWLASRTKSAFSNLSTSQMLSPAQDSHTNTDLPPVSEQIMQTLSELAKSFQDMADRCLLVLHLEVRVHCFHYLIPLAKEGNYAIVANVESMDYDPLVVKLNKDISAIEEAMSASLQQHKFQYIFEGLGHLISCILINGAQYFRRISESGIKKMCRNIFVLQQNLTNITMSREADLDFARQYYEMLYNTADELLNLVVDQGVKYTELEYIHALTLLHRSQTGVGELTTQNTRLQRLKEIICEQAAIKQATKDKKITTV

Key:
[1] = target: T1, GST-RalA (UniProt P11233); assay: pull-down; 10 μg GST-RalA on GSH beads, loaded with 200 μM GTPγS or 1 mM GDP (or no nucleotide), incubated with HEK293A lysates at 4 °C for 2 hours; Western blot with anti-GFP and anti-Sec8; only the target purified
T1 sequence: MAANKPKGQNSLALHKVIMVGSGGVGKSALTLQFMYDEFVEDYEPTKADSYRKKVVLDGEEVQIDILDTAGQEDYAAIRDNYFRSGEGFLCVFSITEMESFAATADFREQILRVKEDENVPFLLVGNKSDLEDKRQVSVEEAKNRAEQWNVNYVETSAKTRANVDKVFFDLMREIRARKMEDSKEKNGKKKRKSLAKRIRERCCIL

[2] = target: T2, RalA, purified, produced in E. coli (UniProt P11233); assay: in vitro binding assays (kind not told); purified M-Sec and RalA, both produced in E. coli; no further detail; both purified
T2 sequence: T1 sequence

binding [1]: binds
Molecule: Sec8 (from UniProt Q96A65 1-974)

binding [2]: no binding
B1: M-Sec, purified, produced in E. coli (protein, UniProt Q61333 94-691)
chain: LSDLEVQPKPRPELDGPLPTVEELKEALEHGRLEVAWQVLALERQLEAAAAAGGMSNEELVWRQSKVEALYVLLCDQVLGVLRRPLEAAPERLSQALAVVSQEELEDRRASGGPLAAALEATRPRRWLQRWRGVVAEVAAERLDAQPATAPEGRSEAESRFLHMGRTMKEDLEVVVERLKPLFPDEFNVVRTYAESYHYHFASHLCALAQFELCERDTYLLLLWVQNLYPNDILNSPKLAQELQGVGLGSLLPPKQIRLLEAMFLSNEVTSVKQLMARALELESQRWTQDVAPQSLDGHCHSELAIDILQIISQGQTKAENITSDVGMQIKQLLLVELAALLRSYQRAFDEFLEKSKLLRNYRVNIMANINNCLFFWTSVEQKWQISHDSLNRLLEPLKDLKAHGFDTLLQSLFLDLKPLFKKFTQTRWANPVETLEEIITTVSSSLPEFSELQDCFREELMETVHLHLVKEYIIRLCKRRLVLKTAEQQQQLARHILANADAIQGFCTENGSTATWLHRALPMIAEIIRLQDSSAIKIEVATYATWYPDFSKGHLNAILAIKGNLPSSEVRSIRNILDINTGVQEPPRPLFSLIKVT
